Data as given in US4256736A (Akzona Incorporated, priority 1978, dated 1981).
Strings that start with PEPTIDE1 are HELM notation: dots part the residues, brackets hold end groups and non-standard residues. *: point of attachment. Cbz = O=C(OCc1ccccc1)*; Boc = CC(C)(C)OC(=O)*; OtBu = CC(C)(C)O*

Test: general procedure: solution-phase peptide synthesis; DCCI/HOBt; azide method; active esters (ONp)
Details: acetate

Row | Substance | step yield (late stage modification step) | step yield (coupling step)
1 | Boc-GGFMTSE(OtBu)K(Boc)-OH | 78% | 
2 | Boc-GGFMTSE(OtBu)K(Boc)-OMe |  | 61%
3 | Cbz-SQTP-OH | 90% | 
4 | H-LVTL-OtBu |  | 77%
5 | H-SQTPLVTL-OtBu | 86% | 72%
6 | H-TSE(OtBu)K(Boc)-OMe | 99% | 61.9%
7 | PEPTIDE1{G.G.F.M.T.S.E.K.S.Q.T.P.L.V.T.L}$$$$V2.0 |  | 77%
